Results reported in the supplement of paper PMC8728848.
Some of the results follow.

Columns and labels:
Assay in all cases: glycan array binding signal (z-score within array); higher = stronger binding
Settings in all cases: glycan notation: IUPAC condensed, linker removed
Fuc(a1-2)Gal = target: Fuc(a1-2)Gal
In short: (§1)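 Glycan array binding is given as a within-array Z-score, which can be read as non-binding when negative. The arrays, 3228 of them, came from the Consortium for Functional Glycomics database and were retained only where the protein sequence was available. Z-scores were averaged across arrays of the same protein sequence at different concentrations or buffers and across linkers.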

Fuc(a1-2)Gal(b1-3)GalNAc = target: Fuc(a1-2)Gal(b1-3)GalNAc
In short: as §1

[1] = target: Fuc(a1-2)Gal(b1-3)GalNAc(a1-3)[Fuc(a1-2)]Gal(b1-4)Glc
In short: as §1

[2] = target: Fuc(a1-2)Gal(b1-3)GalNAc(a1-3)[Fuc(a1-2)]Gal(b1-4)GlcNAc
In short: as §1

[3] = target: Fuc(a1-2)Gal(b1-3)GalNAc(b1-3)Gal
In short: as §1

[4] = target: Fuc(a1-2)Gal(b1-3)GalNAc(b1-3)Gal(a1-4)Gal(b1-4)Glc
In short: as §1

[5] = target: Fuc(a1-2)Gal(b1-3)GalNAc(b1-4)[Neu5Ac(a2-3)]Gal(b1-4)Glc
In short: as §1

Fuc(a1-2)Gal(b1-3)GlcNAc = target: Fuc(a1-2)Gal(b1-3)GlcNAc
In short: as §1

[6] = target: Fuc(a1-2)Gal(b1-3)GlcNAc(b1-2)Man(a1-3)[Fuc(a1-2)Gal(b1-3)GlcNAc(b1-2)Man(a1-6)]Man(b1-4)GlcNAc(b1-4)GlcNAc
In short: as §1

[7] = target: Fuc(a1-2)Gal(b1-3)GlcNAc(b1-2)Man(a1-3)[Fuc(a1-2)Gal(b1-3)GlcNAc(b1-2)Man(a1-6)]Man(b1-4)GlcNAc(b1-4)[Fuc(a1-6)]GlcNAc
In short: as §1

[8] = target: Fuc(a1-2)Gal(b1-3)GlcNAc(b1-3)Gal(b1-4)Glc
In short: as §1

[9] = target: Fuc(a1-2)Gal(b1-3)GlcNAc(b1-3)GalNAc
In short: as §1

[10] = target: Fuc(a1-2)Gal(b1-3)GlcNAc(b1-3)[Fuc(a1-2)Gal(b1-3)GlcNAc(b1-6)]GalNAc
In short: as §1

[11] = target: Fuc(a1-2)Gal(b1-3)GlcNAc(b1-3)[Gal(b1-4)GlcNAc(b1-6)]Gal(b1-4)Glc
In short: as §1

[12] = target: Fuc(a1-2)Gal(b1-3)GlcNAc(b1-3)[Neu5Ac(a2-6)Gal(b1-4)GlcNAc(b1-6)]Gal(b1-4)Glc
In short: as §1

[13] = target: Fuc(a1-2)Gal(b1-3)GlcNAc6S
In short: as §1

[14] = target: Fuc(a1-2)Gal(b1-3)[Fuc(a1-4)]GlcNAc
In short: as §1

[15] = target: Fuc(a1-2)Gal(b1-3)[Fuc(a1-4)]GlcNAc(b1-2)Man(a1-3)[Fuc(a1-2)Gal(b1-3)[Fuc(a1-4)]GlcNAc(b1-2)Man(a1-3)]Man(b1-4)GlcNAc(b1-4)GlcNAc
In short: as §1

[16] = target: Fuc(a1-2)Gal(b1-3)[Fuc(a1-4)]GlcNAc(b1-2)Man(a1-3)[Fuc(a1-2)Gal(b1-3)[Fuc(a1-4)]GlcNAc(b1-2)Man(a1-6)]Man(b1-4)GlcNAc(b1-4)[Fuc(a1-6)]GlcNAc(b1-4)[Fuc(a1-6)]GlcNAc
In short: as §1

[17] = target: Fuc(a1-2)Gal(b1-3)[Fuc(a1-4)]GlcNAc(b1-3)[Fuc(a1-3)[Gal(b1-4)]GlcNAc(b1-6)]Gal(b1-4)Glc
In short: as §1

[18] = target: Fuc(a1-2)Gal(b1-3)[Fuc(a1-4)]GlcNAc(b1-3)[Gal(b1-4)GlcNAc(b1-6)]Gal(b1-4)Glc
In short: as §1

Fuc(a1-2)Gal(b1-4)Glc = target: Fuc(a1-2)Gal(b1-4)Glc
In short: as §1

Fuc(a1-2)Gal(b1-4)Glc6S = target: Fuc(a1-2)Gal(b1-4)Glc6S
In short: as §1

Fuc(a1-2)Gal(b1-4)GlcNAc = target: Fuc(a1-2)Gal(b1-4)GlcNAc
In short: as §1

[19] = target: Fuc(a1-2)Gal(b1-4)GlcNAc(b1-2)Man
In short: as §1

[20] = target: Fuc(a1-2)Gal(b1-4)GlcNAc(b1-2)Man(a1-3)[Fuc(a1-2)Gal(b1-4)GlcNAc(b1-2)Man(a1-6)]Man(b1-4)GlcNAc(b1-4)GlcNAc
In short: as §1

[21] = target: Fuc(a1-2)Gal(b1-4)GlcNAc(b1-2)Man(a1-3)[Fuc(a1-2)Gal(b1-4)GlcNAc(b1-2)Man(a1-6)]Man(b1-4)GlcNAc(b1-4)[Fuc(a1-6)]GlcNAc
In short: as §1

[22] = target: Fuc(a1-2)Gal(b1-4)GlcNAc(b1-2)[Fuc(a1-2)Gal(b1-4)GlcNAc(b1-4)]Man(a1-3)[Fuc(a1-2)Gal(b1-4)GlcNAc(b1-2)Man(a1-6)]Man(b1-4)GlcNAc(b1-4)GlcNAc
In short: as §1

[23] = target: Fuc(a1-2)Gal(b1-4)GlcNAc(b1-3)Gal(b1-4)GlcNAc
In short: as §1

[24] = target: Fuc(a1-2)Gal(b1-4)GlcNAc(b1-3)Gal(b1-4)GlcNAc(b1-2)Man(a1-3)[Fuc(a1-2)Gal(b1-4)GlcNAc(b1-3)Gal(b1-4)GlcNAc(b1-2)Man(a1-6)]Man(b1-4)GlcNAc(b1-4)GlcNAc
In short: as §1

B1: his-Lectin-24A (Drosophila melanogaster) (protein)
chain: MFRLSVLVLNLLLVSHEFSAGTAKIEIQPLPALCNGYCFPTLKPVMEYVAIHQDKWNTCTEILANEARKDQIQLNIQLDALKADVSNIKASQLSKDEKLDRMEREQFAMHESLETINRYLTVKLDRTKLQLEAIKNTMDYMKAQMDGYFSAINGVQCLQPGFEKIGDRYFYIEEDVELNWLDAQAKCRRMGGHLASIKTKQEFDAIVEKLDDSKSYFLGVNENTKTGDFVSAASGKSCLYHEWGPGEPHHNNDQERCVSILRKLMHVGNCTYEKRFICQYGI
Fuc(a1-2)Gal
  glycan array binding signal (z-score): 0.998
Fuc(a1-2)Gal(b1-3)GalNAc
  glycan array binding signal (z-score): 0.264
[1]
  glycan array binding signal (z-score): -0.037
[2]
  glycan array binding signal (z-score): 0.127
[3]
  glycan array binding signal (z-score): -0.77
[4]
  glycan array binding signal (z-score): -0.039
[5]
  glycan array binding signal (z-score): 0.387
Fuc(a1-2)Gal(b1-3)GlcNAc
  glycan array binding signal (z-score): 0.448
[6]
  glycan array binding signal (z-score): 1.37
[7]
  glycan array binding signal (z-score): -0.151
[8]
  glycan array binding signal (z-score): -0.167
[9]
  glycan array binding signal (z-score): -0.119
[10]
  glycan array binding signal (z-score): 0.195
[11]
  glycan array binding signal (z-score): -0.536
[12]
  glycan array binding signal (z-score): -0.909
[13]
  glycan array binding signal (z-score): 0.539
[14]
  glycan array binding signal (z-score): -0.536
[15]
  glycan array binding signal (z-score): 0.195
[16]
  glycan array binding signal (z-score): 0.033
[17]
  glycan array binding signal (z-score): 0.614
[18]
  glycan array binding signal (z-score): -0.407
Fuc(a1-2)Gal(b1-4)Glc
  glycan array binding signal (z-score): 1.94
Fuc(a1-2)Gal(b1-4)Glc6S
  glycan array binding signal (z-score): -0.493
Fuc(a1-2)Gal(b1-4)GlcNAc
  glycan array binding signal (z-score): -0.218
[19]
  glycan array binding signal (z-score): -0.751
[20]
  glycan array binding signal (z-score): -0.423
[21]
  glycan array binding signal (z-score): 0.871
[22]
  glycan array binding signal (z-score): 2.61
[23]
  glycan array binding signal (z-score): -0.369
[24]
  glycan array binding signal (z-score): -0.244
